Data as given in PubChem BioAssay AID504744 (Drosophila RNAi Screening Center, 2011).

- Purpose: 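Find genes whose loss alters insulin-driven dAkt phosphorylation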 (primary screen)
- Cells: Drosophila Kc167 cells
- Reagents: long dsRNA against Drosophila genes, 250 ng dsRNA per well of a 384-well plate
- Duration: 3 days of knock-down, then overnight serum-free starvation before stimulation
- Conditions: bovine insulin at 387 nM for 10 minutes after 12 h without serum
- Read-out: 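In-cell antibody fluorescence for phospho-dAkt in each well over DNA-dye signal, with log2 residuals expressed as z-scores adjusted for cell count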
- Rule for the call: 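Hit in the insulin screen when the two-replicate mean z-score is more extreme than plus or minus 2.5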
In all, the deposit lists about 23,000 reagents; this is a random part of those with a known target gene and a result. In the full data, 98 (0.43%) got an active call. 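Only hit calls are given; the phospho-dAkt signals, z-scores and hit direction were not deposited.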 A plus sign joins genes that one reagent is predicted to hit.

The first 12 entries as a preview:
gene	amplicon	outcome
eIF4G1	DRSC17218	inactive
onecut	DRSC17175	inactive
Osi24	DRSC12275	inactive
Tdc1	DRSC04942	inactive
CG42712 (retired record)	DRSC01038	inactive
mat	DRSC08376	inactive
mat	DRSC22841	inactive
CR40450 + CG32767	DRSC18387	inactive
bi	DRSC18742	inactive
DAT	DRSC07394	inactive
CG4956	DRSC15683	inactive
CG8087	DRSC16375	inactive

Main list, repeating the preview:
gene	amplicon	outcome
eIF4G1	DRSC17218	inactive
onecut	DRSC17175	inactive
Osi24	DRSC12275	inactive
Tdc1	DRSC04942	inactive
CG42712 (retired record)	DRSC01038	inactive
mat	DRSC08376	inactive
mat	DRSC22841	inactive
CR40450 + CG32767	DRSC18387	inactive
bi	DRSC18742	inactive
DAT	DRSC07394	inactive
CG4956	DRSC15683	inactive
CG8087	DRSC16375	inactive
C1GalTA	DRSC03246	inactive
EndoGI	DRSC01964	inactive
mthl11	DRSC12779	inactive
Prx1	DRSC10741	inactive
CG3640	DRSC04399	inactive
Datp	DRSC01102	inactive
CG34242	DRSC09185	inactive
Pym	DRSC22492	inactive
CG31740	DRSC01619	inactive
Ir7e	DRSC18011	inactive
CG31642	DRSC02919	inactive
eIF2A	DRSC11825	inactive
CG8777	DRSC07263	inactive
CG31436	DRSC14661	inactive
Rcd6	DRSC06054	inactive
PIG-H	DRSC14856	inactive
CG32440	DRSC11480	inactive
Dhrs4	DRSC09773	inactive
rg	DRSC17377	inactive
rg	DRSC17726	inactive
rg	DRSC18049	inactive
moody	DRSC18515	inactive
CG8563	DRSC10996	inactive
Ptpmeg	DRSC08684	inactive
mAcon2	DRSC15629	inactive
CG13622	DRSC14624	inactive
CG10337	DRSC02038	inactive
VhaM9.7-c	DRSC08204	inactive
CG31869	DRSC02582	inactive
CG31869	DRSC02674	inactive
CG13585	DRSC04221	inactive
GstE12	DRSC04047	inactive
CG4363	DRSC04465	inactive
S-Lap8	DRSC06870	inactive
S-Lap8	DRSC21372	inactive
drn	DRSC15147	inactive
usp	DRSC18847	inactive
CG12926	DRSC06239	inactive
CG12926	DRSC21930	inactive
Cp190	DRSC16607	inactive
CG17650	DRSC00510	inactive
Nplp3	DRSC09944	inactive
cas	DRSC12373	inactive
Aladin	DRSC18121	inactive
CG7251	DRSC03039	inactive
Pig1	DRSC18698	inactive
CG14160	DRSC10161	inactive
ATPsyngamma	DRSC14094	inactive
CG32021 (retired record)	DRSC17206	inactive
vvl	DRSC11409	inactive
Polr2F	DRSC12366	inactive
CG32112	DRSC09815	inactive
Sos	DRSC03439	inactive
esg	DRSC03530	inactive
Scgdelta	DRSC18544	inactive
CG3909	DRSC14150	inactive
ppk9	DRSC04134	inactive
ppk9	DRSC04135	inactive
CG12851	DRSC04131	inactive
Gbeta76C	DRSC11174	inactive
CG31077	DRSC13805	inactive
CG13083	DRSC02187	inactive
obst-J	DRSC10821	inactive
CG32483	DRSC07902	inactive
CG34304 (retired record)	DRSC12810	inactive
Gr68a	DRSC10803	inactive
Rh5	DRSC03412	inactive
mRpS17	DRSC04463	inactive
mah	DRSC14645	inactive
clt	DRSC04621	inactive
Rala	DRSC18703	inactive
CG9593	DRSC16508	inactive
hzg	DRSC10549	inactive
SmF	DRSC07397	inactive
CG8750	DRSC11037	inactive
Wnt2	DRSC05160	inactive
Wnt2	DRSC07574	inactive
spab	DRSC07112	inactive
ubl	DRSC04998	inactive
CG9547	DRSC03260	inactive
wuho	DRSC18101	inactive
Mettl2	DRSC08398	inactive
RpL23	DRSC04648	inactive
CG13917	DRSC08386	inactive
Or65a	DRSC08808	inactive
tll	DRSC17085	inactive
RpL7	DRSC03417	inactive
CG17928	DRSC02644	inactive
prom	DRSC04684	inactive
prom	DRSC21463	inactive
prom	DRSC22088	inactive
snoRNA:U31:54Ec + snoRNA:snR38:54Eb + snoRNA:U27:54Eb + 8 more	DRSC06458	inactive
CG17777	DRSC18137	inactive
CG31974	DRSC00522	inactive
Tim23	DRSC21240	inactive
Sld5	DRSC14892	inactive
CG8500	DRSC16434	inactive
CG4301	DRSC19886	inactive
CG33160	DRSC08197	inactive
vas (retired record)	DRSC22007	inactive
DUBAI	DRSC07281	inactive
Cpr51A	DRSC05969	inactive
Trpm	DRSC06629	inactive
Trpm	DRSC21566	inactive
RpL34a	DRSC15964	inactive
CG15461	DRSC20532	inactive
Rab19	DRSC11260	inactive
asRNA:CR42547 + CG15674	DRSC04264	inactive
CG34181	DRSC01071	inactive
PMCA	DRSC17113	inactive
PMCA	DRSC17114	inactive
PMCA	DRSC17154	inactive
TwdlE	DRSC02392	inactive
CG31013	DRSC16542	inactive
CG13045	DRSC09926	inactive
Golgin97	DRSC06895	inactive
CG31465	DRSC16090	inactive
CG42816 + CG42815	DRSC11230	inactive
car	DRSC20316	inactive
Srlp	DRSC15890	inactive
CG34041	DRSC22276	inactive
hll	DRSC01944	inactive
CG12522	DRSC09088	inactive
Obp69a	DRSC11247	inactive
Rchy1	DRSC02542	inactive
CycB3	DRSC16618	inactive
Pop1	DRSC17739	inactive
CG14683	DRSC17035	inactive
CG13590	DRSC04226	inactive
Jhbp13	DRSC02913	inactive
Pka-R2	DRSC07509	inactive
ITP	DRSC04222	inactive
Fign	DRSC00592	inactive
Nup133	DRSC16150	active
ACOX1	DRSC05941	inactive
f-cup	DRSC14139	inactive
H2.0	DRSC03340	inactive
H2.0	DRSC22555	inactive
CG34236	DRSC05435	inactive
AGO1	DRSC05912	active
CG8958	DRSC20134	inactive
CG10898	DRSC14279	inactive
CG12448	DRSC01967	inactive
RpS18	DRSC07540	inactive
CG34348	DRSC19425	inactive
CG34348	DRSC19644	inactive
